In PubChem BioAssay AID540256 (National Center for Advancing Translational Sciences (NCATS), 2011):
Several values for one entry are separate records, joined by “and”; a condition that tells them apart may be missing. Equal entries are not always repeated. Hit rate of the full screen: of about 300,000 compounds, about 3,700 (1.2%) were called active. Inconclusive means that the source gave no clear call. Such entries were picked first, then a sample of the others. Calls follow the shape of the full dose curve; tested in HEK293 cells. Potencies beside an inconclusive call are fits to weak or partial responses and may not hold up.

assay: qHTS for Inhibitors of binding or entry into cells for Lassa Virus; conditions: Lassa virus pseudotype entry inhibition, cell reporter; activity change, negative = inhibition: at 37.9 µM (top of the series) unless noted; also: nearly all actives have a fitted effect of over 50% in size
% is scaled to controls: 0 for no effect and ±100 for the full control effect; potency is read from the fitted curve at half-maximal effect.

| Structure (SMILES) | Potency | activity change, negative = inhibition |
| --- | --- | --- |
| CCOC(=O)C1CCN(C(=O)c2ccc3c(c2)C(=O)N(c2ccccc2C)C3=O)CC1 | inconclusive: 0.224 µM [inhibitor, full curve, poor fit] | – |
| N#CCCSc1nc(N2CCOCC2)c2c(c1C#N)CCCC2 | inconclusive: 25.9 µM [inhibitor, single point] | – |
| Cc1cc(OCc2cccc(Cl)c2)c(C)cc1CN1CCOCC1 | inconclusive: 35.5 µM [inhibitor, single point] | – |
| Cc1cccc(C(=O)N2CCCC(c3nc(-c4ccc(F)cc4)no3)C2)c1 (configuration not stated) | – | inactive: -7.08% |
| COc1ccccc1OCC(=O)N/N=C1\CCc2ccccc21 | inconclusive: 5.62 µM [activator, single point] | – |
| O=C(NCc1ccccc1Cl)c1ccc2ccccc2n1 | inconclusive: 31.6 µM [inhibitor, single point] | – |
| NC(N)=N/N=C/c1cn(-c2ccccc2)nc1-c1cccs1 | inconclusive: 29.1 µM [inhibitor, single point] | – |
| COc1ccc(-c2[nH]ncc2/C=C(\C#N)C(=O)NC2CC2)cc1 | inconclusive: 20.6 µM [inhibitor, partial curve, poor fit] | – |
| COCC(C)NC(=O)c1cc(-c2ccc(OC)c(OC)c2)on1 (configuration not stated) | inconclusive: 1.3 µM [activator, full curve, poor fit] | – |
| O=c1ccc(N=Nc2ccccc2)ccc1O | inconclusive: 35.5 µM [inhibitor, single point] | – |
| Cc1ccc(C)c(NC(=O)CN(C)C(=O)[C@@H](NC(=O)c2ccc(C(C)(C)C)cc2)C(C)C)c1 | inconclusive: 22.4 µM [inhibitor, partial curve, poor fit] | – |
| Cc1c(C)n(Cc2ccc(F)cc2)c2ccc(C(=O)Nc3ccc(Cl)cc3)cc12 | – | inactive: -7.18% [at 46.1 µM] |
| O=C(CC1C(=O)N(c2ccccc2)C(=O)N1Cc1ccc2c(c1)OCO2)Nc1ccccc1 (configuration not stated) | – | inactive: -11.6% [at 46.1 µM] |
| COc1ccc(NC(=O)Cn2cc(C(=O)c3ccco3)c3ccccc32)cc1 | – | inactive: 8.12% |
| O=C(Nc1ccc(CN2CCCCC2)cc1)Nc1ccc(Br)cc1Cl | inconclusive: 12.6 µM [inhibitor, single point] | – |
| Nc1ccc2oc(CCc3ccccc3)nc2c1 | inconclusive: 18.3 µM [inhibitor, partial curve] | – |
| CC(=O)c1ccc(NC(=O)CCCc2nc(-c3cccc(C)c3)no2)cc1 | – | inactive: 1.12% [at 46.1 µM] |
| COc1ccc(C2SCCN2C(=S)Nc2cccc(C(F)(F)F)c2)cc1 (configuration not stated) | inconclusive: 3.16 µM [activator, full curve, poor fit] | – |
| Cc1ccc(C)c(Cn2c(=O)n(CCCCCC(=O)NCc3ccc4c(c3)OCO4)c(=O)c3sccc32)c1 | inconclusive: 0.562 µM [inhibitor, full curve, poor fit] | – |
| Cn1cc(Cl)c(C(=O)Nc2nc3ccc(Cl)cc3s2)n1 | inconclusive: 29.1 µM [activator, single point] | – |
| CSCc1nnc(NC(=O)c2ccc(S(=O)(=O)N3CCCCC3C)cc2)o1 (configuration not stated) | inconclusive: 28.2 µM [inhibitor, single point] | – |
| COCCOC(=O)c1c(C)oc2ccc(OC(=O)c3c(OC)cccc3OC)cc12 | inconclusive: 14.6 µM [inhibitor, partial curve, poor fit] | – |
| COC(=O)c1cc(C(=O)OC)cc(N2C(=O)CC(NNC(=O)c3ccc(C)cc3)C2=O)c1 (configuration not stated) | active: 0.794 µM | – |

| Structure (SMILES) | Potency | activity change, negative = inhibition |
| --- | --- | --- |
| CCOC(=O)CCCNC(=O)CN1C(=O)NC(c2ccccc2)(c2ccccc2)C1=O | inconclusive: 3.16 µM [inhibitor, single point] | – |
| CC(=O)OC(C(=O)NCc1ccco1)c1ccncc1 (configuration not stated) | – | inactive: 0.603% |
| CN(C)c1ncc(S(=O)(=O)c2ccccc2)c(N)n1 | – | inactive: 3.48% [at 46.1 µM] |
| CC(=O)N1CN(C2CC(C)(C)NC(C)(C)C2)Cc2c1sc1c2CCCC1 | inconclusive: 32.6 µM [inhibitor, single point] | – |
| O=C(CSc1nc(C2CC2)nc2c1cnn2-c1ccccc1)Nc1c[nH]c(=O)[nH]c1=O | inconclusive: 35.5 µM [inhibitor, single point] | – |
| COc1ccc(-c2cc(N)n(S(=O)(=O)c3c(F)c(F)c(F)c(F)c3F)n2)cc1OC | inconclusive: 11.6 µM [inhibitor, partial curve, poor fit] | – |
| Cc1ccc(NC(=O)c2cc(S(=O)(=O)N3CCOCC3)c(Br)s2)cc1 | active: 10 µM | – |
| COc1cccc2cc(C(=O)OC(C)C(=O)c3ccc(C)cc3)c(=O)oc12 (configuration not stated) | – | inactive: -26.9% [at 46.1 µM] |
| CCC(C)[C@H](NC(=O)N1CC(=O)Nc2ccccc21)C(=O)NC(C)CCc1ccccc1 (some centres not stated) | inconclusive: 4.47 µM [inhibitor, partial curve, poor fit] | – |
| CCCN1CCC(N2CCN(c3cccc(C(F)(F)F)c3)CC2)CC1 | inconclusive: 29.1 µM [inhibitor, single point] | – |
| CCC1CCCCN1CCCNC(=O)c1ccc2c(c1)N(Cc1ccc(Cl)cc1)C(=O)c1ccccc1S2(=O)=O (configuration not stated) | inconclusive: 22.4 µM [inhibitor, single point] | – |
| CCC(C)NC(=O)CCNS(=O)(=O)c1ccc(Br)cc1 (configuration not stated) | – | inactive: 4.17% |
| c1ccc(CSc2nnc3c(n2)OC(c2ccco2)Nc2ccccc2-3)cc1 (configuration not stated) | inconclusive: 3.66 µM [inhibitor, partial curve, poor fit] | – |
| CC(=O)Nc1ccc2c(c1)[nH]c(=O)c1ccccc12 | – | inactive: 12.3% |
| CC1CCN(S(=O)(=O)N2CCC(C(=O)O)CC2)CC1 | – | inactive: 3.88% |
| CCOc1ccc2cc(C#N)c(SCC(=O)OC)nc2c1 | inconclusive: 6.51 µM [activator, single point] | – |
| COc1ccc(-c2cn3nc(N4CCCC(C(=O)NCc5ccccc5C)C4)sc3n2)cc1 (configuration not stated) | – | inactive: -0.586% [at 46.1 µM] |
| COc1cccc(Nc2sc(C(=O)c3ccc(F)cc3)c(N)c2C(=O)NCc2ccc(C)cc2)c1 | inconclusive: 17.8 µM [inhibitor, single point] | – |
| COc1ccc2c(c1OC)C(=O)N1c3ccccc3N=C(c3ccc([N+](=O)[O-])cc3)CC21 (configuration not stated) | – | inactive: -13.7% |
| CC(NC(=O)c1cccc(S(=O)(=O)N2CCN(Cc3ccccc3)CC2)c1)c1ccc(Cl)cc1 (configuration not stated) | active: 0.891 µM | – |
| CC(=O)c1cccc(CN2CCN(CCc3ccccc3)C(CCO)C2)c1 (configuration not stated) | inconclusive: 11.2 µM [activator, single point] | – |
| O=C(NCCNC(=O)Oc1cccc2ccccc12)Oc1cccc2ccccc12 | inconclusive: 1.26 µM [activator, single point] | – |
| C[C@H](NC(=O)c1ccco1)C(=O)Nc1cccc([N+](=O)[O-])c1 | – | inactive: -25.6% |

| Structure (SMILES) | Potency | activity change, negative = inhibition |
| --- | --- | --- |
| COc1ccc(NS(=O)(=O)c2ccc3c(c2)n(C)c(=O)n3C)cc1 | inconclusive: 14.6 µM [inhibitor, partial curve] | – |
| Cc1cccc(CSC2=NCCN2S(=O)(=O)c2ccc(F)cc2)c1 | inconclusive: 35.5 µM [inhibitor, single point] | – |
| COc1ccccc1N1CCN(Cc2ccc(Br)o2)CC1 | – | inactive: -0.3% |
| COc1ccc(C(=O)c2oc3ccccc3c2NC(C)=O)cc1 | – | inactive: 26.3% |
| COC(=O)c1ccc(COC(=O)CCC(=O)c2cccs2)cc1 | inconclusive: 3.98 µM [activator, partial curve, poor fit] | – |
| Cc1cc2c(cc1C)CSC(c1ccc3ccccc3c1O)SC2 | inconclusive: 6.51 µM [inhibitor, single point] | – |
| CCOC(=O)CSc1nc2c(c(=O)[nH]c(=O)n2C)n1CCCc1ccccc1 | – | inactive: 18.2% |
| COc1ccc(N=Nc2c(N)nn(C)c2N)cc1 | – | inactive: 7.43% [at 46.1 µM] |
| O=[N+]([O-])c1ccc(CN2[C@H](COCc3ccccc3)[C@@H](N3CCCC3)CS2(=O)=O)cc1 | – | inactive: -3.34% [at 46.1 µM] |
| CCOc1ccc(S(=O)(=O)N2CC(=O)Nc3ccccc32)cc1 | inconclusive: 1.26 µM [inhibitor, single point] | – |
| CC(=O)c1ccc(NC(=O)CCNC(=O)c2ccccc2Cl)cc1 | – | inactive: 15.2% |
| CCCNC(=S)Nc1ccc(Nc2ccccc2)cc1 | inconclusive: 6.51 µM [activator, single point] | – |
| COc1ccc(NC(=O)C2CCCN(S(=O)(=O)c3ccc4c(c3)CCCN4C(C)=O)C2)cc1 (configuration not stated) | inconclusive: 7.08 µM [inhibitor, full curve, poor fit] and inconclusive: 8.91 µM [inhibitor, partial curve, poor fit] | – |
| O=C(Cn1c(=O)n(-c2ccccc2)c(=O)c2oc3ccccc3c21)Nc1ccccc1 | inconclusive: 15.8 µM [inhibitor, partial curve, poor fit] | – |
| CC1=CSC2=NC(=O)/C(=C\c3cccn3-c3ccc([N+](=O)[O-])cc3)C(=N)N12 | inconclusive: 35.5 µM [inhibitor, partial curve, poor fit] | – |
| Cc1ccc(C(C(=O)NC2CCCC2)N(Cc2cccs2)C(=O)CNC(=O)c2cccs2)o1 (configuration not stated) | inconclusive: 6.51 µM [inhibitor, partial curve, poor fit] | – |
| CCn1c(C(O)c2cc(OC)c(OC)c(OC)c2)nc2ccccc21 (configuration not stated) | inconclusive: 17.8 µM [inhibitor, single point] | – |
| CCc1cccc2c(C(=O)CN3C(=O)NC4(CCCCC4)C3=O)c[nH]c12 | inconclusive: 0.562 µM [inhibitor, full curve, poor fit] | – |
| COc1ccc(C(=O)n2nc(C)cc2Nc2ccccc2)cc1 | inconclusive: 14.1 µM [activator, partial curve, poor fit] | – |
| Cn1c(-c2ccc(C=O)s2)nc2ccccc21 | inconclusive: 5.01 µM [activator, full curve] | – |
| O=C(CSc1nc2c([nH]c3ccccc32)c(=O)n1-c1ccccc1F)Nc1ccccc1C(F)(F)F | inconclusive: 35.5 µM [inhibitor, single point] | – |

18 consecutive records out of the list so far, for reference:

| Structure (SMILES) | Potency | activity change, negative = inhibition |
| --- | --- | --- |
| Cc1cc(OCc2cccc(Cl)c2)c(C)cc1CN1CCOCC1 | inconclusive: 35.5 µM [inhibitor, single point] | – |
| Cc1cccc(C(=O)N2CCCC(c3nc(-c4ccc(F)cc4)no3)C2)c1 (configuration not stated) | – | inactive: -7.08% |
| COc1ccccc1OCC(=O)N/N=C1\CCc2ccccc21 | inconclusive: 5.62 µM [activator, single point] | – |
| O=C(NCc1ccccc1Cl)c1ccc2ccccc2n1 | inconclusive: 31.6 µM [inhibitor, single point] | – |
| NC(N)=N/N=C/c1cn(-c2ccccc2)nc1-c1cccs1 | inconclusive: 29.1 µM [inhibitor, single point] | – |
| COc1ccc(-c2[nH]ncc2/C=C(\C#N)C(=O)NC2CC2)cc1 | inconclusive: 20.6 µM [inhibitor, partial curve, poor fit] | – |
| COCC(C)NC(=O)c1cc(-c2ccc(OC)c(OC)c2)on1 (configuration not stated) | inconclusive: 1.3 µM [activator, full curve, poor fit] | – |
| O=c1ccc(N=Nc2ccccc2)ccc1O | inconclusive: 35.5 µM [inhibitor, single point] | – |
| Cc1ccc(C)c(NC(=O)CN(C)C(=O)[C@@H](NC(=O)c2ccc(C(C)(C)C)cc2)C(C)C)c1 | inconclusive: 22.4 µM [inhibitor, partial curve, poor fit] | – |
| Cc1c(C)n(Cc2ccc(F)cc2)c2ccc(C(=O)Nc3ccc(Cl)cc3)cc12 | – | inactive: -7.18% [at 46.1 µM] |
| O=C(CC1C(=O)N(c2ccccc2)C(=O)N1Cc1ccc2c(c1)OCO2)Nc1ccccc1 (configuration not stated) | – | inactive: -11.6% [at 46.1 µM] |
| COc1ccc(NC(=O)Cn2cc(C(=O)c3ccco3)c3ccccc32)cc1 | – | inactive: 8.12% |
| O=C(Nc1ccc(CN2CCCCC2)cc1)Nc1ccc(Br)cc1Cl | inconclusive: 12.6 µM [inhibitor, single point] | – |
| Nc1ccc2oc(CCc3ccccc3)nc2c1 | inconclusive: 18.3 µM [inhibitor, partial curve] | – |
| CC(=O)c1ccc(NC(=O)CCCc2nc(-c3cccc(C)c3)no2)cc1 | – | inactive: 1.12% [at 46.1 µM] |
| COc1ccc(C2SCCN2C(=S)Nc2cccc(C(F)(F)F)c2)cc1 (configuration not stated) | inconclusive: 3.16 µM [activator, full curve, poor fit] | – |
| Cc1ccc(C)c(Cn2c(=O)n(CCCCCC(=O)NCc3ccc4c(c3)OCO4)c(=O)c3sccc32)c1 | inconclusive: 0.562 µM [inhibitor, full curve, poor fit] | – |
| Cn1cc(Cl)c(C(=O)Nc2nc3ccc(Cl)cc3s2)n1 | inconclusive: 29.1 µM [activator, single point] | – |
